Data source: PubChem BioAssay AID1259254 (NCATS, 2017)

Screen: 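Genome-wide screen for genes that prevent DNA re-replication in cancer cells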 (primary screen)
System: human HCT116 colorectal cancer cells
Reagent: single siRNA against human genes
Time to read-out: 3 days
Measurement: 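Nuclei stained with Hoechst and imaged; cell-cycle phase assigned by DNA content; G2 share scaled per plate, non-targeting siRNA 0%, GMNN siRNA 100%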
Reading the numbers: G2 robust z-score and G2 cells, % of GMNN control: higher = more G2 cells, more excess DNA replication; raw share of cells in G2: higher = larger share of cells with G2 DNA content
Rule for the call: 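An siRNA counts as active if its G2 robust z-score lies at least 5 MADs above the screen median; here such calls match roughly 38% of GMNN control or more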
The deposit covers about 59,000 reagents; this is an unselected part. Of all reagents, about 1,550 (2.6%) got an active call. 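G2 share is only a proxy for re-replication; each gene was hit by three separate siRNAs, and active genes were retested.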 Raw values vary from plate to plate and are shown uncorrected. The numbers tell different reagents against one gene apart. No sequences are given here. Not stated in the record: the amount of reagent.

Gene | reagent | G2 robust z-score | G2 cells, % of GMNN control | raw share of cells in G2 (%) | Call
CALY (GeneID 50632) | 1 | 3.2 | 25.5 | 17.5 | inactive
CALY (GeneID 50632) | 2 | -0.152 | 1.9 | 4.95 | inactive
CALY (GeneID 50632) | 3 | 0.468 | 6.26 | 6.2 | inactive
PEX11A (GeneID 8800) | 1 | 5.39 | 40.9 | 23.3 | active
PEX11A (GeneID 8800) | 2 | 0.257 | 4.78 | 5.79 | inactive
PEX11A (GeneID 8800) | 3 | 0.236 | 4.63 | 4.98 | inactive
RPS10 (GeneID 6204) | 1 | 6.19 | 46.5 | 24.8 | active
RPS10 (GeneID 6204) | 2 | 3.63 | 28.5 | 15.5 | inactive
RPS10 (GeneID 6204) | 3 | 7.62 | 56.6 | 23.8 | active
SOWAHA (GeneID 134548) | 1 | -0.791 | -2.6 | 3.2 | inactive
SOWAHA (GeneID 134548) | 2 | -0.577 | -1.09 | 2.76 | inactive
SOWAHA (GeneID 134548) | 3 | -0.0372 | 2.71 | 3.56 | inactive
TMEM213 (GeneID 155006) | 1 | 0.314 | 5.18 | 5.46 | inactive
TMEM213 (GeneID 155006) | 2 | -0.569 | -1.04 | 2.61 | inactive
TMEM213 (GeneID 155006) | 3 | 0.717 | 8.01 | 5.29 | inactive
FLJ45513 (GeneID 729220) | 1 | -0.57 | -1.04 | 2.7 | inactive
FLJ45513 (GeneID 729220) | 2 | 0.184 | 4.26 | 5.56 | inactive
FLJ45513 (GeneID 729220) | 3 | -0.613 | -1.34 | 2.88 | inactive
LOC401478 (GeneID 401478) | 1 | -0.156 | 1.87 | 4.49 | inactive
LOC401478 (GeneID 401478) | 2 | 1 | 10 | 7.5 | inactive
LOC401478 (GeneID 401478) | 3 | -0.725 | -2.13 | 3.91 | inactive
MRPS22 (GeneID 56945) | 1 | -0.638 | -1.52 | 3.75 | inactive
MRPS22 (GeneID 56945) | 2 | 0.933 | 9.53 | 9.01 | inactive
MRPS22 (GeneID 56945) | 3 | 3.47 | 27.4 | 11.7 | inactive
SLC23A3 (GeneID 151295) | 1 | 0.23 | 4.59 | 8.15 | inactive
SLC23A3 (GeneID 151295) | 2 | 0.389 | 5.71 | 6.79 | inactive
SLC23A3 (GeneID 151295) | 3 | -0.501 | -0.558 | 4.47 | inactive
NAPB (GeneID 63908) | 1 | -0.707 | -2.01 | 5 | inactive
NAPB (GeneID 63908) | 2 | 3.25 | 25.8 | 11.9 | inactive
NAPB (GeneID 63908) | 3 | 0.94 | 9.58 | 6.64 | inactive
